Results are given in words; binding and its absence hold for the method and conditions named. In cells and extracts the contact can be indirect. Some entries that bind do so weakly or less than the wild type.
Legend:
[1] = biological target: cyclin-dependent kinase 5 (Cdk5), overexpressed (UniProt Q03114); experiment: co-IP; TrkA, TrkB or TrkC overexpressed together with Cdk5 or p35 in COS7 cells or HEK293T cells; immunoprecipitation with Cdk5, p35 or pan-Trk antibody, blot with pan-Trk antibody; 1-2 mg lysate with 1 ug antibody at 4 °C overnight, protein G Sepharose; IgG control
p35, overexpressed = p35, overexpressed (UniProt P61810); experiment: as above
[2] = biological target: p35, endogenous in rat brain and rat cortical neurons (rat (endogenous in P7 rat brain and rat cortical neurons)) (UniProt P61810); experiment: co-IP; Rat cortical neurons with or without BDNF for 20 min; lysates immunoprecipitated with p35 antibody, blotted with TrkB, p35 or Cdk5 antibody

By UniProt entry, the sequences of proteins in these tests, tags left out. Residues count along the entry.
UniProt P61810: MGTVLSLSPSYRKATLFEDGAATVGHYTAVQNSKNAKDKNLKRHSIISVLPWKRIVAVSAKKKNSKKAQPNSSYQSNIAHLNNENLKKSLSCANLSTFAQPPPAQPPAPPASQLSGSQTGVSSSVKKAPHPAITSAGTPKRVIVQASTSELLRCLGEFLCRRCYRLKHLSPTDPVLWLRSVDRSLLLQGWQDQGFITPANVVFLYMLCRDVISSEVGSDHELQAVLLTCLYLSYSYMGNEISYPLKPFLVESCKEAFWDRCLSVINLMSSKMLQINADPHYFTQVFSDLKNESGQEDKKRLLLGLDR
UniProt P35739, residues 33-799: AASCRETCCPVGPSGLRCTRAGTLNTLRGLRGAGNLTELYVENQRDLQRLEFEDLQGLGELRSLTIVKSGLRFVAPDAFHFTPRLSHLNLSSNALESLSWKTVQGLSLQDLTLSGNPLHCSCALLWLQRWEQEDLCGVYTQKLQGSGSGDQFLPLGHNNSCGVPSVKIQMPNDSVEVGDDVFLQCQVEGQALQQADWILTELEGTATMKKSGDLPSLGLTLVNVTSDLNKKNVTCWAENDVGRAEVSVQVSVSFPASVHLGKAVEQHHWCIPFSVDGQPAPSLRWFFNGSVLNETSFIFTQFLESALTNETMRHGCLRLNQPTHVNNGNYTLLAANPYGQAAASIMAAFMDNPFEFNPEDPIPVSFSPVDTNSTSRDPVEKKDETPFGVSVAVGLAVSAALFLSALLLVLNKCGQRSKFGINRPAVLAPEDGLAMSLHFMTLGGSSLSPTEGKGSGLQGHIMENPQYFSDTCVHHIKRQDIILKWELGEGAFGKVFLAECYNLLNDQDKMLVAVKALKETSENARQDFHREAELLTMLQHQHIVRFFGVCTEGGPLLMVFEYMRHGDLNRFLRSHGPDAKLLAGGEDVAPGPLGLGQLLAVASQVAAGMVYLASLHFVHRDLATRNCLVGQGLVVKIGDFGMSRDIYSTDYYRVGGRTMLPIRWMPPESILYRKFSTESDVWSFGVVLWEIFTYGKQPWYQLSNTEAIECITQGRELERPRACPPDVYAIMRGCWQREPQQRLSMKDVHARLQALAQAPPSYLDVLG

Substance: TrkA (from UniProt P35739 33-799) (receptor)
- binding [1]: binds
- binding (p35, overexpressed): binds

Substance: cyclin-dependent kinase 5 (Cdk5), endogenous in rat brain and rat cortical neurons (from UniProt Q03114 1-292) (enzyme)
- binding [2]: binds
